Protein sequences, listed by entry. Tags and fused reporters are not part of them.
UniProt P03372: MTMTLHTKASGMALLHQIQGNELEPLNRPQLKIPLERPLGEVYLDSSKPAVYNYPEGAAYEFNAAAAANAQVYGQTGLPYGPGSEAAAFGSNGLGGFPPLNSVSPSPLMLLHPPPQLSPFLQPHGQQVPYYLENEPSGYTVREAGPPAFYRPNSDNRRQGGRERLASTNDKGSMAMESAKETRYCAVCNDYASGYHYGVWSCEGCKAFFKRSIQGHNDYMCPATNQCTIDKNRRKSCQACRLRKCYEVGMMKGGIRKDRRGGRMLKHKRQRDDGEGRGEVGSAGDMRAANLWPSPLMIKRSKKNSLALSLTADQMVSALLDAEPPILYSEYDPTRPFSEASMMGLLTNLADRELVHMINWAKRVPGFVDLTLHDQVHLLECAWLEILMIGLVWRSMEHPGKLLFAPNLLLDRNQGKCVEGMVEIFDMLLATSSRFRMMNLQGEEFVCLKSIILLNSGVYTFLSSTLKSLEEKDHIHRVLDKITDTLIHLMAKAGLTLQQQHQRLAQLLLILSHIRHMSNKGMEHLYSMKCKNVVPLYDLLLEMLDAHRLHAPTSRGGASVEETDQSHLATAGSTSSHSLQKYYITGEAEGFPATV

In publication PMC5548489:

Target: estrogen receptor alpha (ER) (human (endogenous in MCF-7 and ZR-75)) (UniProt P03372)
Test: affinity purification with mass spectrometry; anti-ER antibody (Santa Cruz sc-8002) on Dynabeads Protein G, 1.5 mg lysate of MCF-7 or ZR-75 cells overnight at 4°C; cells starved, vehicle or 10 µM ERX-11 for 2 hr, then 10 nM E2 for 2 hr; the named proteins are ER binders whose co-precipitation was disrupted by ERX-11

binding: binds
B1: SAP130 (protein, UniProt Q9H0E3 1-1048)
chain: MGPPRHPQAGEIEAGGAGGGRRLQVEMSSQQFPRLGAPSTGLSQAPSQIANSGSAGLINPAATVNDESGRDSEVSAREHMSSSSSLQSREEKQEPVVVRPYPQVQMLSTHHAVASATPVAVTAPPAHLTPAVPLSFSEGLMKPPPKPTMPSRPIAPAPPSTLSLPPKVPGQVTVTMESSIPQASAIPVATISGQQGHPSNLHHIMTTNVQMSIIRSNAPGPPLHIGASHLPRGAAAAAVMSSSKVTTVLRPTSQLPNAATAQPAVQHIIHQPIQSRPPVTTSNAIPPAVVATVSATRAQSPVITTTAAHATDSALSRPTLSIQHPPSAAISIQRPAQSRDVTTRITLPSHPALGTPKQQLHTMAQKTIFSTGTPVAAATVAPILATNTIPSATTAGSVSHTQAPTSTIVTMTVPSHSSHATAVTTSNIPVAKVVPQQITHTSPRIQPDYPAERSSLIPISGHRASPNPVAMETRSDNRPSVPVQFQYFLPTYPPSAYPLAAHTYTPITSSVSTIRQYPVSAQAPNSAITAQTGVGVASTVHLNPMQLMTVDASHARHIQGIQPAPISTQGIQPAPIGTPGIQPAPLGTQGIHSATPINTQGLQPAPMGTQQPQPEGKTSAVVLADGATIVANPISNPFSAAPAATTVVQTHSQSASTNAPAQGSSPRPSILRKKPATDGAKPKSEIHVSMATPVTVSMETVSNQNNDQPTIAVPPTAQQPPPTIPTMIAAASPPSQPAVALSTIPGAVPITPPITTIAAAPPPSVTVGGSLSSVLGPPVPEIKVKEEVEPMDIMRPVSAVPPLATNTVSPSLALLANNLSMPTSDLPPGASPRKKPRKQQHVISTEEGDMMETNSTDDEKSTAKSLLVKAEKRKSPPKEYIDEEGVRYVPVRPRPPITLLRHYRNPWKAAYHHFQRYSDVRVKEEKKAMLQEIANQKGVSCRAQGWKVHLCAAQLLQLTNLEHDVYERLTNLQEGIIPKKKAATDDDLHRINELIQGNMQRCKLVMDQISEARDSMLKVLDHKDRVLKLLNKNGTVKKVSKLKRKEKV

No constants are given. Whether binding was seen depends on the method and setting. Binding seen in cells or lysates may run through a third protein. These calls come from enrichment with a bait or labelling near it, and not all partners need be listed.
